{
  "source": "the supplement of paper PMC8728848",
  "binders": {"B1": {"name": "CcfD (Bacteroides fragilis), Q5L9G4 (protein)", "chain": "MKKQNSIYTLLIALLCFVSSCDYLGVSDQLAGGLQNTEQVFDNVSYTKRWYANVFAGIPDYSGINSVNVGAFKNPWTGMCDELVVGYGNSSKYNNSDRNAANMGFHRYGDCYKYIRQANIFLQKAHPIMTTGTQGDQLLEDELTQMKANVRFMRAFYHYLLFEQYGPIILVKDKIYNATEDQDVPRNTVDEVIEYIDSELTAVASELTQEPIFEDKDYRAWPTKGVALAVRAKLWLYAASPLLNGGYREALSVTNPDGTRLFPDYDAGKWEKALAACKDFIDYAEAGRYELYKEYKDDNGAVIDPDKSVYNLFQKYTHEIIWATANNDWGGMNGDAFDRRIAPRCEKNGLGSTGVTQELVDAFYMKDGFPVSATAYLPQSTLYQEEGYGTYKDQNDNFSKKYTNVTVSNRYLNREPRFYNTVFFNGRQWPVSCNQVLFYNGGNSGVQEGQATLTGYMLFKRFNRSVSLTNPGVASQFRPSIIFRLADFYLMYAEAANEVNPNDARVLKYLNLVRERAGLPDIETLNPAIRGNQELQRAAIQRERQIELATEGQRYFDVRRWMIADKNGEGRQNGYVHGMNVRGESNDKEDFNRIVEASQIVFNRKMYLYPMPDSEMRKTKNLVQNPGW"}},
  "test_in_all_cases": "glycan array binding signal (z-score within array); higher = stronger binding",
  "settings_in_all_cases": "glycan notation: IUPAC condensed, linker removed",
  "key": {"[1]": {"target": "Gal(a1-3)Gal(b1-4)GlcNAc", "how_it_was_run": "(§1)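 From the Consortium for Functional Glycomics database, 3228 arrays were curated, keeping only those whose protein sequence was available. Binding is given as a within-array Z-score averaged across arrays sharing a protein sequence and across linkers. Negative Z-scores can be read as non-binding.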"}, "[2]": {"target": "Gal(a1-3)Gal(b1-4)GlcNAc(b1-2)Man", "how_it_was_run": "as §1"}, "[3]": {"target": "Gal(a1-3)Gal(b1-4)GlcNAc(b1-2)Man(a1-3)[Gal(a1-3)Gal(b1-4)GlcNAc(b1-2)Man(a1-6)]Man(b1-4)GlcNAc(b1-4)GlcNAc", "how_it_was_run": "as §1"}, "[4]": {"target": "Gal(a1-3)Gal(b1-4)GlcNAc(b1-3)GalNAc", "how_it_was_run": "as §1"}, "[5]": {"target": "Gal(a1-3)Gal(b1-4)GlcNAc(b1-6)GalNAc", "how_it_was_run": "as §1"}, "[6]": {"target": "Gal(a1-3)Gal(b1-4)[Fuc(a1-3)]GlcNAc", "how_it_was_run": "as §1"}, "[7]": {"target": "Gal(a1-3)Gal(b1-4)[Fuc(a1-3)]GlcNAc(b1-2)Man(a1-3)[Gal(a1-3)Gal(b1-4)[Fuc(a1-3)]GlcNAc(b1-2)Man(a1-6)]Man(b1-4)GlcNAc(b1-4)GlcNAc", "how_it_was_run": "as §1"}, "[8]": {"target": "Gal(a1-3)GalNAc", "how_it_was_run": "as §1"}, "[9]": {"target": "Gal(a1-3)[Gal(a1-4)]Gal(b1-4)GlcNAc", "how_it_was_run": "as §1"}, "[10]": {"target": "Gal(a1-4)Gal(b1-3)GlcNAc(b1-2)Man(a1-3)[Gal(a1-4)Gal(b1-3)GlcNAc(b1-2)Man(a1-6)]Man(b1-4)GlcNAc(b1-4)GlcNAc", "how_it_was_run": "as §1"}, "[11]": {"target": "Gal(a1-4)Gal(b1-4)Glc", "how_it_was_run": "as §1"}, "[12]": {"target": "Gal(a1-4)Gal(b1-4)GlcNAc", "how_it_was_run": "as §1"}, "[13]": {"target": "Gal(a1-4)Gal(b1-4)GlcNAc(b1-2)Man(a1-3)[Gal(a1-4)Gal(b1-4)GlcNAc(b1-2)Man(a1-6)]Man(b1-4)GlcNAc(b1-4)GlcNAc", "how_it_was_run": "as §1"}, "[14]": {"target": "Gal(a1-4)Gal(b1-4)GlcNAc(b1-3)Gal(b1-4)Glc", "how_it_was_run": "as §1"}, "[15]": {"target": "Gal(a1-4)GlcNAc", "how_it_was_run": "as §1"}, "[16]": {"target": "Gal(a1-6)Glc", "how_it_was_run": "as §1"}, "[17]": {"target": "Gal(b1-2)Gal", "how_it_was_run": "as §1"}, "[18]": {"target": "Gal(b1-3)Gal", "how_it_was_run": "as §1"}, "[19]": {"target": "Gal(b1-3)Gal(b1-4)GlcNAc", "how_it_was_run": "as §1"}, "[20]": {"target": "Gal(b1-3)GalNAc", "how_it_was_run": "as §1"}, "[21]": {"target": "Gal(b1-3)GalNAc(a1-3)[Fuc(a1-2)]Gal(b1-4)Glc", "how_it_was_run": "as §1"}, "[22]": {"target": "Gal(b1-3)GalNAc(a1-3)[Fuc(a1-2)]Gal(b1-4)GlcNAc", "how_it_was_run": "as §1"}, "[23]": {"target": "Gal(b1-3)GalNAc(b1-3)Gal", "how_it_was_run": "as §1"}, "[24]": {"target": "Gal(b1-3)GalNAc(b1-3)Gal(a1-4)Gal(b1-4)Glc", "how_it_was_run": "as §1"}, "[25]": {"target": "Gal(b1-3)GalNAc(b1-4)Gal(b1-4)Glc", "how_it_was_run": "as §1"}, "[26]": {"target": "Gal(b1-3)GalNAc(b1-4)[Neu5Ac(a2-3)]Gal(b1-4)Glc", "how_it_was_run": "as §1"}, "[27]": {"target": "Gal(b1-3)GlcNAc", "how_it_was_run": "as §1"}, "[28]": {"target": "Gal(b1-3)GlcNAc(a1-3)Gal(b1-4)GlcNAc", "how_it_was_run": "as §1"}, "[29]": {"target": "Gal(b1-3)GlcNAc(a1-6)Gal(b1-4)GlcNAc", "how_it_was_run": "as §1"}, "[30]": {"target": "Gal(b1-3)GlcNAc(b1-2)Man", "how_it_was_run": "as §1"}},
  "note": "The list shows a part of the results.",
  "data": [
    {"binder": "B1", "values": [
      {"measurement": "glycan array binding signal (z-score)", "setting": "[1]", "value": 0.049},
      {"measurement": "glycan array binding signal (z-score)", "setting": "[2]", "value": -0.588},
      {"measurement": "glycan array binding signal (z-score)", "setting": "[3]", "value": 0.804},
      {"measurement": "glycan array binding signal (z-score)", "setting": "[4]", "value": -0.759},
      {"measurement": "glycan array binding signal (z-score)", "setting": "[5]", "value": -0.246},
      {"measurement": "glycan array binding signal (z-score)", "setting": "[6]", "value": 2.52},
      {"measurement": "glycan array binding signal (z-score)", "setting": "[7]", "value": 0.883},
      {"measurement": "glycan array binding signal (z-score)", "setting": "[8]", "value": -0.113},
      {"measurement": "glycan array binding signal (z-score)", "setting": "[9]", "value": -1.43},
      {"measurement": "glycan array binding signal (z-score)", "setting": "[10]", "value": -0.312},
      {"measurement": "glycan array binding signal (z-score)", "setting": "[11]", "value": -0.824},
      {"measurement": "glycan array binding signal (z-score)", "setting": "[12]", "value": 0.506},
      {"measurement": "glycan array binding signal (z-score)", "setting": "[13]", "value": 0.043},
      {"measurement": "glycan array binding signal (z-score)", "setting": "[14]", "value": -0.785},
      {"measurement": "glycan array binding signal (z-score)", "setting": "[15]", "value": -0.962},
      {"measurement": "glycan array binding signal (z-score)", "setting": "[16]", "value": -0.384},
      {"measurement": "glycan array binding signal (z-score)", "setting": "[17]", "value": -0.246},
      {"measurement": "glycan array binding signal (z-score)", "setting": "[18]", "value": -0.391},
      {"measurement": "glycan array binding signal (z-score)", "setting": "[19]", "value": -0.502},
      {"measurement": "glycan array binding signal (z-score)", "setting": "[20]", "value": 0.274},
      {"measurement": "glycan array binding signal (z-score)", "setting": "[21]", "value": -0.24},
      {"measurement": "glycan array binding signal (z-score)", "setting": "[22]", "value": -0.384},
      {"measurement": "glycan array binding signal (z-score)", "setting": "[23]", "value": -0.456},
      {"measurement": "glycan array binding signal (z-score)", "setting": "[24]", "value": 0.496},
      {"measurement": "glycan array binding signal (z-score)", "setting": "[25]", "value": 0.161},
      {"measurement": "glycan array binding signal (z-score)", "setting": "[26]", "value": 0.857},
      {"measurement": "glycan array binding signal (z-score)", "setting": "[27]", "value": 0.42},
      {"measurement": "glycan array binding signal (z-score)", "setting": "[28]", "value": 1.17},
      {"measurement": "glycan array binding signal (z-score)", "setting": "[29]", "value": -0.988},
      {"measurement": "glycan array binding signal (z-score)", "setting": "[30]", "value": -0.752}
    ]}
  ]
}
